Laboratory results from paper PMC2760709.
These are yes or no findings as the source states them, for the method shown.

Chains of the proteins cited; added tags and fusions are not shown. Lines headed by an entry give the natural chain unless they say otherwise; changes in a name come on top.
UniProt P26361: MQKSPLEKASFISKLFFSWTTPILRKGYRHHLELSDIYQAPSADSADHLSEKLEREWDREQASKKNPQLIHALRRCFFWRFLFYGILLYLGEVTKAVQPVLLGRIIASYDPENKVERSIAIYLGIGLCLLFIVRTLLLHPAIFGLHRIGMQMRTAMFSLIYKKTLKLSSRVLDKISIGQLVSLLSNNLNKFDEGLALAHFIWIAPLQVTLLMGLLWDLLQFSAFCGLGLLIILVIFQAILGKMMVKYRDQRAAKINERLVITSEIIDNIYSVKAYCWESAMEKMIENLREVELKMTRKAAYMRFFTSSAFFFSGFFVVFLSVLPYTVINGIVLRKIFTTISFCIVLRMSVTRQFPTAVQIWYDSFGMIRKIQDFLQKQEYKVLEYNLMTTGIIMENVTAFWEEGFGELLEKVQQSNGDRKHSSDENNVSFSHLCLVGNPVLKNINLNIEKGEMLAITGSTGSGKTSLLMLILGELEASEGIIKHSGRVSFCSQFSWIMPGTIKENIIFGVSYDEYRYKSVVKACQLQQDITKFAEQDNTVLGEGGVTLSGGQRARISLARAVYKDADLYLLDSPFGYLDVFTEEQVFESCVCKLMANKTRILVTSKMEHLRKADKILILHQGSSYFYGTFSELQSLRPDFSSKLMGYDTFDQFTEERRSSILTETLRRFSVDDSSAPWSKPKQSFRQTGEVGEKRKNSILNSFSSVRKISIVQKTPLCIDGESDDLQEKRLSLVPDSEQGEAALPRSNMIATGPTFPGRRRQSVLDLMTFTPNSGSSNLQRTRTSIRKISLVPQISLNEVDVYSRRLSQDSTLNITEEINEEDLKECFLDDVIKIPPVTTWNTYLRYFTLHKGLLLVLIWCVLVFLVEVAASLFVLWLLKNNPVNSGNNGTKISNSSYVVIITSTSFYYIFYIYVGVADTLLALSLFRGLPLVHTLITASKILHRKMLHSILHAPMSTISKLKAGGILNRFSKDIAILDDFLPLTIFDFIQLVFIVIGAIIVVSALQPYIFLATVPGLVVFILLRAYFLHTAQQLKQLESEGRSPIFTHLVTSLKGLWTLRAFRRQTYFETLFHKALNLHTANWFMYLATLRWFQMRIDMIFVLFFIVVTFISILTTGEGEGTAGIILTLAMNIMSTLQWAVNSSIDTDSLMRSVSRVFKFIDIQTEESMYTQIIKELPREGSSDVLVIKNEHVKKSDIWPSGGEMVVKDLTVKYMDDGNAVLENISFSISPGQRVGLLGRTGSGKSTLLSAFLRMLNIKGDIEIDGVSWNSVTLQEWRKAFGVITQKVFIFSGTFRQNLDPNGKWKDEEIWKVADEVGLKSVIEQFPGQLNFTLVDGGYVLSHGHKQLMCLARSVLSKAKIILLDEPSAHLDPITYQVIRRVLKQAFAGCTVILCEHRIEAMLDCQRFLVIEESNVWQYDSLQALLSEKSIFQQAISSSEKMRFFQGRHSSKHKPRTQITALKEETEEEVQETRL

Molecular target: NBD1 domain of CFTR (mouse) (mouse) (UniProt P26361)
Experiment: SPR; NBD1 amine-coupled on CM5 chip (Biacore 2000), analyte injected directly; 25°C, 30 µl/min; 50 mM Tris, 150 mM NaCl, 5 mM MgCl2 pH 7.6, 0.005% P20, 1 mM DTT, 0.1 µM CaCl2; simple two-component model; apparent Kd; both purified

B1: annexin-A1 (ANXA1), bovine (protein, UniProt P46193 1-346)
chain: MAMVSEFLKQAWFIENEEQEYIKTVKGSKGGPGSAVSPYPTFNPSSDVEALHKAITVKGVDEATIIEILTKRNNAQRQQIKAAYLQEKGKPLDEVLKKALLGHLEEVVLALLKTPAQFDAEELRAAMKGLGTDEDTLNEILASRTNREIREINRVYREELKRDLAKDIASDTSGDYEKALLSLAKGDRSEELAVNDDLADSDARALYEAGERRKGTDVNVFITILTTRSYPHLRRVFQKYSKYSKHDMNKVLDLELKGDIEKCLTVIVKCATSQPMFFAEKLHQAMKGIGTRHKTLIRIMVSRSEIDMNDIKACYQKLYGISLCQAILDETKGDYEKILVALCGRD
For B1, the binding was “no binding (tested: 100 µg/ml)”.
